Results are given in words; binding and its absence hold for the method and conditions named. Binding seen in cells or lysates may run through a third protein. Some results given as binding are weak or reduced against the parent protein; the word gives no strength.
Biological target: Insulin-like growth factor 2 mRNA-binding protein 2 (human (endogenous in TPC1 and CAL62)) (UniProt Q9Y6M1)
Test: co-IP; lysates of TPC1 and CAL62 cells (Cell lysis buffer for Western and IP, Beyotime P0013, with PMSF, phosphatase and protease inhibitors); lysate precleared with rabbit IgG; antibody-conjugated Protein A/G magnetic beads, 4 h at 4 °C; three washes with IP lysis buffer; Western blot

Amino acid sequences for entries named in this document (tags omitted).
UniProt Q9Y6M1: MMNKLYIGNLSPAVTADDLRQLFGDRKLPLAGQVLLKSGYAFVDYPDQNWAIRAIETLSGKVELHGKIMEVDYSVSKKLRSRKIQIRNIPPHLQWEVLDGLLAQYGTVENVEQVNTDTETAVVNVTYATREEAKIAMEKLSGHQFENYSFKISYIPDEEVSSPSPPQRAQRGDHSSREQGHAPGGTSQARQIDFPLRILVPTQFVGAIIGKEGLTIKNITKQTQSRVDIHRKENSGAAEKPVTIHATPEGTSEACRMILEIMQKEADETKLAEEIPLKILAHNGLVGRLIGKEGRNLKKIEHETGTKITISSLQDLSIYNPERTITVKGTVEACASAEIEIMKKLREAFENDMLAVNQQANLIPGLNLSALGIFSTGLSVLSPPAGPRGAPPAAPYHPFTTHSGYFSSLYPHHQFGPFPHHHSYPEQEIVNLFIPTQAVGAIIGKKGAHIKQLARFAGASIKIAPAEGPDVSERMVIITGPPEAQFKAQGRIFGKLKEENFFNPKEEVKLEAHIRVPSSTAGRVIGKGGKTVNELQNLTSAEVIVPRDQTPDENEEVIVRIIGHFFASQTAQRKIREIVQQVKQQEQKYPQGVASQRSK
UniProt A5YKK6: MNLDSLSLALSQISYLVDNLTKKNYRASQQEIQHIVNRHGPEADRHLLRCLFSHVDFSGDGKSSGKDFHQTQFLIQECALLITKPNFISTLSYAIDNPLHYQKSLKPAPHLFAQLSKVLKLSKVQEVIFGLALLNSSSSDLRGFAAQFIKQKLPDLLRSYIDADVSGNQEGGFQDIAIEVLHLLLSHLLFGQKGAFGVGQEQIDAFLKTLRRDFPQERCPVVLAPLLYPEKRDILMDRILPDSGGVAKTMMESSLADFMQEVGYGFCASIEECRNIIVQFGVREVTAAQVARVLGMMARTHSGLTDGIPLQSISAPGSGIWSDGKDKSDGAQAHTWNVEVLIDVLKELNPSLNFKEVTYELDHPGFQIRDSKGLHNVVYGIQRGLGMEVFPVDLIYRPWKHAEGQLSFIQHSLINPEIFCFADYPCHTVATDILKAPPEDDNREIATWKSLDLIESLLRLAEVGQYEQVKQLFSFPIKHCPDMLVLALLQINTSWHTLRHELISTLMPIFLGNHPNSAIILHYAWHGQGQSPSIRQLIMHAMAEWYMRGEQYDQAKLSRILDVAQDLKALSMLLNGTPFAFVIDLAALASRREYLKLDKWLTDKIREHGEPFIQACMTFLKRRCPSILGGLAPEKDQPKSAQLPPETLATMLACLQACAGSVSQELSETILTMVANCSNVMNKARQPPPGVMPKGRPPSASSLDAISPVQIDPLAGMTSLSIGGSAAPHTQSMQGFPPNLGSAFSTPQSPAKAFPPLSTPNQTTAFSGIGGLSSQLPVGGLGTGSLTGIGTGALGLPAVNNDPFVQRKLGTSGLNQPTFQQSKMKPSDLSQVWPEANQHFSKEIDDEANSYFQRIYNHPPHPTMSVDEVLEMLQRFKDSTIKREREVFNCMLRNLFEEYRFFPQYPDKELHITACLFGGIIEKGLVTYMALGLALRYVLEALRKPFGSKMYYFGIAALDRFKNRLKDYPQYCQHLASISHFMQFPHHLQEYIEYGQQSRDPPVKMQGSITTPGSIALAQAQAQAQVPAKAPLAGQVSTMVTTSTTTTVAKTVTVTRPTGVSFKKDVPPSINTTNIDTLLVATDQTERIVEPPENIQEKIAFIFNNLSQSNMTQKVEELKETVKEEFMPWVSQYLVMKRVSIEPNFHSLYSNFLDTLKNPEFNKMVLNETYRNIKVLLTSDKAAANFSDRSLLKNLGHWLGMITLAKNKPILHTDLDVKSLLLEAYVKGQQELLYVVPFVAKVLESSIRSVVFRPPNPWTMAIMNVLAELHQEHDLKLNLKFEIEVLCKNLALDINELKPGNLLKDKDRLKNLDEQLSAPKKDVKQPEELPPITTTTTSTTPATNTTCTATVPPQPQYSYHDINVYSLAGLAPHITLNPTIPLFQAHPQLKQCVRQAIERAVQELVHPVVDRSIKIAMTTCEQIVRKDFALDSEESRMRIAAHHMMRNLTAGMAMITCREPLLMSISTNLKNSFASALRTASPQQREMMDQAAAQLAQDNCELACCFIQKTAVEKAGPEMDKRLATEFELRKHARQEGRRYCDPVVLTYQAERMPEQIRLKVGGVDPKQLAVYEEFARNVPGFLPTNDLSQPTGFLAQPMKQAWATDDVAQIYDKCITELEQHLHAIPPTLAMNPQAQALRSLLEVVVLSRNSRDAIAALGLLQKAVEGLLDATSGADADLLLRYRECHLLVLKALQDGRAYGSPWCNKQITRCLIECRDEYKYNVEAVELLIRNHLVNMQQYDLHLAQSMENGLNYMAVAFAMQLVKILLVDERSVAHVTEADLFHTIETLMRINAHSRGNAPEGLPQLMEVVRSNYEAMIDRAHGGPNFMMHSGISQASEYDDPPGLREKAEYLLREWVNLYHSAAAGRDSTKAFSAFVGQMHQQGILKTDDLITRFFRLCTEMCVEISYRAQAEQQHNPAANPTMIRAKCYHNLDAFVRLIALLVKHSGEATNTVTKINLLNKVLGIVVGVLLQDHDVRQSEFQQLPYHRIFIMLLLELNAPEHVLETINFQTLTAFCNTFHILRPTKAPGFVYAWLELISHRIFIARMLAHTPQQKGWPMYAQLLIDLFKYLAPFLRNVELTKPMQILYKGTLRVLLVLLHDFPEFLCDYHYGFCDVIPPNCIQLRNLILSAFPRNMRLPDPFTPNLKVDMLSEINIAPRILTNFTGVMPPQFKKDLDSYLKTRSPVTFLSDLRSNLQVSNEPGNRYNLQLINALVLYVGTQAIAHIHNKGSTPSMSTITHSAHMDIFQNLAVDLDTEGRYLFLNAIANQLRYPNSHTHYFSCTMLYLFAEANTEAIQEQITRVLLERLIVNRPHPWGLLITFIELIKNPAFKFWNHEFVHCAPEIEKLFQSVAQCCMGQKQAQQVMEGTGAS

binding: binds
Substance: CNOT1, scaffold subunit of the CCR4-NOT deadenylase complex (from UniProt A5YKK6 1-2376)
